Source: article PMC4754349, “Tripartite assembly of RND multidrug efflux pumps” (Nature Communications, 2016)
These are yes or no findings as the source states them, for the method shown.

Molecular target: T1, OprM reconstituted into nanodiscs (OprM–ND) (Pseudomonas aeruginosa) (UniProt Q51487)
T1 sequence: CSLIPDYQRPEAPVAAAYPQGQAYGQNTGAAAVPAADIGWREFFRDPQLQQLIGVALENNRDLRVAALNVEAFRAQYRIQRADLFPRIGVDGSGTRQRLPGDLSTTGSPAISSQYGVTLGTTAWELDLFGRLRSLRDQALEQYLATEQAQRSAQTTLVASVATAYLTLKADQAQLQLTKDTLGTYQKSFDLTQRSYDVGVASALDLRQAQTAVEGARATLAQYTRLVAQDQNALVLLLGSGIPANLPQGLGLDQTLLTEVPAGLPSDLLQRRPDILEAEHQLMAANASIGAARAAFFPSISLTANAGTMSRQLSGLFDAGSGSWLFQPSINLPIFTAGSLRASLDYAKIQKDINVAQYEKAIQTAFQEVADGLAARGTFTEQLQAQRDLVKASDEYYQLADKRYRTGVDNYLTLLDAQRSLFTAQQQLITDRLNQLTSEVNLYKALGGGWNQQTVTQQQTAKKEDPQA
Assay: native gel or EMSA; native PAGE, 4–15% gradient gel, Tris-Glycine running buffer, silver stained; nanodisc-reconstituted MexB and OprM mixed 1:1, with or without lipidated MexA (1:1:10 molar ratio); both purified

B1: lipidated MexA (natural protein)
chain: CGKSEAPPPAQTPEVGIVTLEAQTVTLNTELPGRTNAFRIAEVRPQVNGIILKRLFKEGSDVKAGQQLYQIDPATYEADYQSAQANLASTQEQAQRYKLLVADQAVSKQQYADANAAYLQSKAAVEQARINLRYTKVLSPISGRIGRSAVTEGALVTNGQANAMATVQQLDPIYVDVTQPSTALLRLRRELASGQLERAGDNAAKVSLKLEDGSQYPLEGRLEFSEVSVDEGTGSVTIRAVFPNPNNELLPGMFVHAQLQEGVKQKAILAPQQGVTRDLKGQATALVVNAQNKVELRVIKADRVIGDKWLVTEGLNAGDKIITEGLQFVQPGVEVKTVPAKNVASAQKADAAPAKTDSKG
modifications: lipidated (palmitoylation of an N-terminal cysteinyl residue)
notes: MexA, periplasmic membrane fusion protein of Pseudomonas aeruginosa, native lipidated form, 39 kDa monomer; also called native lipid-modified MFP; source: E. coli C43ΔacrB, purified (HisTrap HP, gel filtration Superose 6), in 0.03% DDM
binding: no binding (condition: without MexB–ND)
